Laboratory results from patent publication US20220265603A1, “HEPATIC FIBROSIS-INHIBITING AGENT AND BROWN FAT CELL-ACTIVATING AGENT CONTAINING TAXIFOLIN” (NATIONAL HOSPITAL ORGANIZATION, priority 2019, published 2022).

Test: Food ingestion experiment: body weight and food intake
Type: in vivo, C57BL/6J mice
Conditions: feeding period
Procedure: C57BL/6J mice were used as experimental animals. They were purchased at the age of 7 weeks from CLEA Japan, Inc. and randomly divided into four groups at the age of 8 weeks after 1 week of acclimation as shown in Table 1 below. They were allowed to eat and drink freely, and their food intake and body weight were measured once a week. Fasting blood glucose was measured on the first day of the feeding experiment and once every 4 weeks thereafter (at 4, 8, and 12 weeks after the start of the feeding). At the end of 12 weeks, an intraperitoneal glucose tolerance test (IPGTT) was performed to analyze glucose tolerance. Rectal temperature was also measured at 8 and 12 weeks follow-up (Table 2).

O=C1c2c(O)cc(O)cc2O[C@H](c2ccc(O)c(O)c2)[C@H]1O [taxifolin]
food intake (high-fat diet+3% taxifolin vs high-fat diet only): no difference in food intake
food intake (normal diet+3% taxifolin vs normal diet only): no difference in food intake
